# Measured values: the supplement of paper PMC4604168 (melanoma cell lines)
# Some of the results follow. Repeats are few or missing, and single values can be far off.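 Imaging used 1,536-well plates; nuclei positive for cleaved PARP by antibody were divided by total DNA-stained nuclei to yield the apoptosis fraction. Doses for screening kept most cells viable, and cell lines differ markedly in resting and induced cleaved-PARP levels.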
# System: 501Mel
# Experiment: cleaved PARP positive nuclei fraction relative to DMSO control; melanoma cells; higher = more apoptosis
# Conditions: library dose: low library concentration; 72 h
row,SMILES,cleaved PARP positive nuclei fraction [%]
1,"O=C(O)c1ccc2c(c1)nc(Nc1cccc(Cl)c1)c1ccncc12 + O=C(Nc1cccc(Cl)c1)Nc1ncc(CCNc2ncnc3ccsc23)s1 [SNS314] (first compound 0.4 µM, partner dose 0.0008 µM)",74.6
2,"Nc1nc(F)nc2c1ncn2[C@@H]1O[C@H](CO)[C@@H](O)[C@@H]1O [fludarabine] + C=CCn1c(=O)c2cnc(Nc3ccc(N4CCN(C)CC4)cc3)nc2n1-c1cccc(C(C)(C)O)n1 [MK1775] (first compound 0.2 µM, partner dose 0.02 µM)",2880
3,"Nc1ccn([C@@H]2O[C@H](CO)[C@@H](O)C2(F)F)c(=O)n1 [gemcitabine] + COc1cc(Nc2ncc(F)c(Nc3ccc4c(n3)NC(=O)C(C)(C)O4)n2)cc(OC)c1OC [Tamatinib] (first compound 0.0004 µM, partner dose 0.4 µM)",82.8
4,"Cn1c(=O)n(-c2ccc(C(C)(C)C#N)cc2)c2c3cc(-c4cnc5ccccc5c4)ccc3ncc21 + COc1cc2c(Oc3ccc4[nH]c(C)cc4c3F)ncnc2cc1OCCCN1CCCC1 [cediranib] (first compound 0.004 µM, partner dose 0.4 µM)",374
5,"Cc1cc(Nc2cc(N3CCN(C)CC3)nc(/C=C/c3ccccc3)n2)n[nH]1 + NC(=O)Nc1cc(-c2cccc(F)c2)sc1C(=O)N[C@H]1CCCNC1 [AZD7762] (first compound 0.04 µM, partner dose 0.02 µM)",105
6,"Nc1nc(F)nc2c1ncn2[C@@H]1O[C@H](CO)[C@@H](O)[C@@H]1O [fludarabine] + O=C(Nc1cccc(Cl)c1)Nc1ncc(CCNc2ncnc3ccsc23)s1 [SNS314] (first compound 0.2 µM, partner dose 0.0008 µM)",788
7,"CS(=O)(=O)CCNCc1ccc(-c2ccc3ncnc(Nc4ccc(OCc5cccc(F)c5)c(Cl)c4)c3c2)o1 [lapatinib] + CN(NC(=O)CC(=O)NN(C)C(=S)c1ccccc1)C(=S)c1ccccc1 [STA4783] (first compound 0.8 µM, partner dose 0.006 µM)",251
8,"CC(C)C[C@H](NC(=O)[C@H](Cc1ccccc1)NC(=O)c1cnccn1)B(O)O [Bortezomib] + CO[C@@H]1[C@H](N(C)C(=O)c2ccccc2)C[C@H]2O[C@]1(C)n1c3ccccc3c3c4c(c5c6ccccc6n2c5c31)C(=O)NC4 [Midostaurin] (first compound 0.001 µM, partner dose 0.08 µM)",230
9,"C[C@@H](Oc1cc(-c2cnn(C3CCNCC3)c2)cnc1N)c1c(Cl)ccc(F)c1Cl [Crizotinib] + O=C(O)c1ccc(-c2c[nH]c3ncc(-c4ccccc4)cc23)cc1C1CCCC1 [GSK650394] (first compound 0.2 µM, partner dose 0.16 µM)",76.1
10,"CS(=O)(=O)CCNCc1ccc(-c2ccc3ncnc(Nc4ccc(OCc5cccc(F)c5)c(Cl)c4)c3c2)o1 [lapatinib] + NC(=O)Nc1cc(-c2cccc(F)c2)sc1C(=O)N[C@H]1CCCNC1 [AZD7762] (first compound 0.8 µM, partner dose 0.02 µM)",164
11,"CNC(=O)c1cc(Oc2ccc(NC(=O)Nc3ccc(Cl)c(C(F)(F)F)c3)cc2)ccn1 [sorafenib] + NC(=O)Nc1cc(-c2cccc(F)c2)sc1C(=O)N[C@H]1CCCNC1 [AZD7762] (first compound 0.4 µM, partner dose 0.02 µM)",84.9
12,"CN1CCN(c2ccc3nc(-c4c(N)c5c(F)cccc5[nH]c4=O)[nH]c3c2)CC1 [Dovitinib] + NCC(=O)Nc1ccc(-n2nc(C(F)(F)F)cc2-c2ccc3c(ccc4ccccc43)c2)cc1 [OSU03012] (first compound 0.1 µM, partner dose 1 µM)",216
13,"C=C(c1ccc(C(=O)O)cc1)c1cc2c(cc1C)C(C)(C)CCC2(C)C [Bexarotene] + NC(=O)Nc1cc(-c2cccc(F)c2)sc1C(=O)N[C@H]1CCCNC1 [AZD7762] (first compound 2 µM, partner dose 0.02 µM)",75.8
14,"Cn1c(=O)n(-c2ccc(C(C)(C)C#N)cc2)c2c3cc(-c4cnc5ccccc5c4)ccc3ncc21 + Cn1cncc1[C@@](N)(c1ccc(Cl)cc1)c1ccc2c(c1)c(-c1cccc(Cl)c1)cc(=O)n2C [tipifarnib] (first compound 0.004 µM, partner dose 0.01 µM)",203
15,"C[C@@H](Oc1cc(-c2cnn(C3CCNCC3)c2)cnc1N)c1c(Cl)ccc(F)c1Cl [Crizotinib] + CN(NC(=O)CC(=O)NN(C)C(=S)c1ccccc1)C(=S)c1ccccc1 [STA4783] (first compound 0.2 µM, partner dose 0.006 µM)",467
16,"CC(C)C[C@H](NC(=O)[C@H](Cc1ccccc1)NC(=O)c1cnccn1)B(O)O [Bortezomib] + COc1cc2c(Oc3ccc4[nH]c(C)cc4c3F)ncnc2cc1OCCCN1CCCC1 [cediranib] (first compound 0.001 µM, partner dose 0.4 µM)",275
17,"Cc1cc(Nc2cc(N3CCN(C)CC3)nc(/C=C/c3ccccc3)n2)n[nH]1 + Cc1cc(N2CCOCC2)cc2[nH]c(-c3c(NC[C@@H](O)c4cccc(Cl)c4)cc[nH]c3=O)nc12 [BMS536924] (first compound 0.04 µM, partner dose 0.2 µM)",108
18,"C[C@@H](Oc1cc(-c2cnn(C3CCNCC3)c2)cnc1N)c1c(Cl)ccc(F)c1Cl [Crizotinib] + CC1(C)NC(=O)N(c2ccc([N+](=O)[O-])c(C(F)(F)F)c2)C1=O [nilutamide] (first compound 0.2 µM, partner dose 1 µM)",99.3
19,"Cn1c(=O)n(-c2ccc(C(C)(C)C#N)cc2)c2c3cc(-c4cnc5ccccc5c4)ccc3ncc21 + NC(=O)Nc1cc(-c2cccc(F)c2)sc1C(=O)N[C@H]1CCCNC1 [AZD7762] (first compound 0.004 µM, partner dose 0.02 µM)",168
20,"CC(C)C[C@H](NC(=O)[C@H](Cc1ccccc1)NC(=O)c1cnccn1)B(O)O [Bortezomib] + O=C(O)c1ccc(-c2c[nH]c3ncc(-c4ccccc4)cc23)cc1C1CCCC1 [GSK650394] (first compound 0.001 µM, partner dose 0.16 µM)",174
21,"C[C@@H](Oc1cc(-c2cnn(C3CCNCC3)c2)cnc1N)c1c(Cl)ccc(F)c1Cl [Crizotinib] + C[C@@H]1CCN(C(=O)CC#N)C[C@@H]1N(C)c1ncnc2[nH]ccc12 [CP690550] (first compound 0.2 µM, partner dose 1 µM)",52.8
22,"CC(C)C[C@H](NC(=O)[C@H](Cc1ccccc1)NC(=O)c1cnccn1)B(O)O [Bortezomib] + Cc1cc(N2CCOCC2)cc2[nH]c(-c3c(NC[C@@H](O)c4cccc(Cl)c4)cc[nH]c3=O)nc12 [BMS536924] (first compound 0.001 µM, partner dose 0.2 µM)",1070
23,"Nc1ccn([C@@H]2O[C@H](CO)[C@@H](O)C2(F)F)c(=O)n1 [gemcitabine] + CC(C)(C)c1cnc(CSc2cnc(NC(=O)C3CCNCC3)s2)o1 [SNS-032] (first compound 0.0004 µM, partner dose 0.01 µM)",74.2
24,"CCCS(=O)(=O)Nc1ccc(F)c(C(=O)c2c[nH]c3ncc(Cl)cc23)c1F + C=CCn1c(=O)c2cnc(Nc3ccc(N4CCN(C)CC4)cc3)nc2n1-c1cccc(C(C)(C)O)n1 [MK1775] (first compound 0.08 µM, partner dose 0.02 µM)",94.4
25,"Nc1ccn([C@@H]2O[C@H](CO)[C@@H](O)C2(F)F)c(=O)n1 [gemcitabine] + CC1(C)NC(=O)N(c2ccc([N+](=O)[O-])c(C(F)(F)F)c2)C1=O [nilutamide] (first compound 0.0004 µM, partner dose 1 µM)",179
26,"CC(C)C[C@H](NC(=O)[C@H](Cc1ccccc1)NC(=O)c1cnccn1)B(O)O [Bortezomib] + Cc1ccc(NC(=O)c2cccc(N(C)C)c2)cc1NC(=O)c1ccc(O)cc1 [ZM336372] (first compound 0.001 µM, partner dose 2 µM)",309
27,"CCCS(=O)(=O)Nc1ccc(F)c(C(=O)c2c[nH]c3ncc(Cl)cc23)c1F + CN(NC(=O)CC(=O)NN(C)C(=S)c1ccccc1)C(=S)c1ccccc1 [STA4783] (first compound 0.08 µM, partner dose 0.006 µM)",281
28,"O=C(O)[C@@H]1[O][Sb](=[O])([O][Sb]2(=[O])[O][C@H]([C@H](O)CO)[C@H](O)[C@H](C(=O)O)[O]2)[O][C@H]([C@H](O)CO)[C@@H]1O (stereo not given in full) [stibogluconate] + C[C@@H]1CCN(C(=O)CC#N)C[C@@H]1N(C)c1ncnc2[nH]ccc12 [CP690550] (first compound 2 µM, partner dose 1 µM)",127
29,"C=C(c1ccc(C(=O)O)cc1)c1cc2c(cc1C)C(C)(C)CCC2(C)C [Bexarotene] + Cc1ccc(NC(=O)c2cccc(N(C)C)c2)cc1NC(=O)c1ccc(O)cc1 [ZM336372] (first compound 2 µM, partner dose 2 µM)",137
30,"Cc1cc(Nc2cc(N3CCN(C)CC3)nc(/C=C/c3ccccc3)n2)n[nH]1 + CO[C@@H]1[C@H](N(C)C(=O)c2ccccc2)C[C@H]2O[C@]1(C)n1c3ccccc3c3c4c(c5c6ccccc6n2c5c31)C(=O)NC4 [Midostaurin] (first compound 0.04 µM, partner dose 0.08 µM)",87.3

# Some values from the list:
# Entry for CNC(=O)c1cc(Oc2ccc(NC(=O)Nc3ccc(Cl)c(C(F)(F)F)c3)cc2)ccn1 [sorafenib] + NC(=O)Nc1cc(-c2cccc(F)c2)sc1C(=O)N[C@H]1CCCNC1 [AZD7762] (first compound 0.4 µM, partner dose 0.02 µM) under cleaved PARP positive nuclei fraction [%]: 84.9
# Entry for O=C(O)[C@@H]1[O][Sb](=[O])([O][Sb]2(=[O])[O][C@H]([C@H](O)CO)[C@H](O)[C@H](C(=O)O)[O]2)[O][C@H]([C@H](O)CO)[C@@H]1O (stereo not given in full) [stibogluconate] + C[C@@H]1CCN(C(=O)CC#N)C[C@@H]1N(C)c1ncnc2[nH]ccc12 [CP690550] (first compound 2 µM, partner dose 1 µM) under cleaved PARP positive nuclei fraction [%]: 127
